PMC7550751, “Application of Force to a Syndecan-4 Containing Complex With Thy-1–αVβ3 Integrin Accelerates Neurite Retraction” (Frontiers in Molecular Biosciences, 2020)
These are yes or no findings as the source states them, for the method shown. Some results given as binding are weak or reduced against the parent protein; the word gives no strength. Sequences can lack the tags named with a protein.

The chains behind the UniProt entries cited, without tags or fusion partners. Residues count along the entry.
UniProt P09038, residues 143-288: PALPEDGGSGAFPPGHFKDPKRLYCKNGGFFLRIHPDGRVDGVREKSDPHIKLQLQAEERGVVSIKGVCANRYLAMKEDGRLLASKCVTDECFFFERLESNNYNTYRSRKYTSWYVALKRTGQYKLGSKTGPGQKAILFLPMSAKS

T1: Thy-1-Fc wild type (UniProt P01831 20-131)
T1 construct: In the functional rows m1 stands for Thy-1 on the surface of CAD neuronal cells; also called Thy-1(RLD)-Fc; CD90; source: purified; obtained as previously reported (Schneider, 2000; Leyton et al., 2001)
T1 sequence (looked up): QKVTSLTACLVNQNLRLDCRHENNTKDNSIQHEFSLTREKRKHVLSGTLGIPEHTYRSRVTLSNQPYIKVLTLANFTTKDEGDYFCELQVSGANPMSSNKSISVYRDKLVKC


Tests used:
Thy-1-Fc wild type = molecular target: T1, Thy-1-Fc wild type; assay: optical tweezers force spectroscopy (force-ramp adhesion frequency assay); miniTweezers; Fc proteins on protein G-coated polystyrene beads at femtomolar concentration; Thy-1-Fc (wild type or mutant) on the 2.1 μm bead held by a micropipette, Syndecan-4-Fc on the 3.1 μm optically trapped bead; loading rate 10 pN/s; at least 50 approach-retraction cycles per 4-5 pairs of beads; 10 mM Hepes pH 7.4, 100 mM NaCl, 1 mM MgCl2, 25°C; both purified
[1] = molecular target: recombinant human basic Fibroblast Growth Factor (human) (UniProt P09038); assay: ELISA; bFGF (1 μg/ml) immobilised overnight at 4°C on a 96-well Maxisorp plate; serum-free medium containing Syndecan-4-Fc added for 2 h at 37°C; detected with HRP-coupled goat anti-human IgG1 and TMB (absorbance at 450 nm); only the target purified

Binder | binding (Thy-1-Fc wild type) | binding [1]
Commercially purified human Syndecan (ectodomain)-4-Fc (Fc fusion, UniProt P31431 19-145, looked up, Syndecan-4, human, ectodomain; Heparan sulfate proteoglycan; also called Syndecan-4-Fc; Synd-4-Fc) ESIRETEVIDPQDLLEGRYFSGALPDDEDVVGPGQESDDFELSGSGDLDDLEDSMIGPEVVHPLVPLDNHIPERAGSGSQVPTEPKKLEENEVIPKRISPVEESEDVSNKVSMSSTVQGSNIFERTE | binds | 
Syndecan-4-Fc (serum-free medium of transfected HEK293T cells) (Fc fusion, UniProt P31431 19-145, heparan sulfate chains (shown by Heparitinase III treatment and immunoblot)) ESIRETEVIDPQDLLEGRYFSGALPDDEDVVGPGQESDDFELSGSGDLDDLEDSMIGPEVVHPLVPLDNHIPERAGSGSQVPTEPKKLEENEVIPKRISPVEESEDVSNKVSMSSTVQGSNIFERTE |  | binds
